Measurements reported in article doi:10.1101/870998.
No constants are given. Whether binding was seen depends on the method and setting. Binding seen in cells or lysates may run through a third protein. Some binding calls cover weakened binding; strength is not graded here. Sequences can lack the tags named with a protein.

Protein sequences, listed by entry. Tags and fused reporters are not part of them.
UniProt Q15691: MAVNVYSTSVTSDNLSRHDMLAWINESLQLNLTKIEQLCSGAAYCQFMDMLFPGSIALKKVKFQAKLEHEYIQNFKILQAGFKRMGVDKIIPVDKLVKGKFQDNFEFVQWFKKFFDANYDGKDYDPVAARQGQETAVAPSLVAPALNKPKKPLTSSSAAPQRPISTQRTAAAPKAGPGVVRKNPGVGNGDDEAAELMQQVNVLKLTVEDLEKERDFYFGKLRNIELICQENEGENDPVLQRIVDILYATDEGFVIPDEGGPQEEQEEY

T1: GFP-iASPP-RARA (UniProt Q8WUF5)
T1 sequence: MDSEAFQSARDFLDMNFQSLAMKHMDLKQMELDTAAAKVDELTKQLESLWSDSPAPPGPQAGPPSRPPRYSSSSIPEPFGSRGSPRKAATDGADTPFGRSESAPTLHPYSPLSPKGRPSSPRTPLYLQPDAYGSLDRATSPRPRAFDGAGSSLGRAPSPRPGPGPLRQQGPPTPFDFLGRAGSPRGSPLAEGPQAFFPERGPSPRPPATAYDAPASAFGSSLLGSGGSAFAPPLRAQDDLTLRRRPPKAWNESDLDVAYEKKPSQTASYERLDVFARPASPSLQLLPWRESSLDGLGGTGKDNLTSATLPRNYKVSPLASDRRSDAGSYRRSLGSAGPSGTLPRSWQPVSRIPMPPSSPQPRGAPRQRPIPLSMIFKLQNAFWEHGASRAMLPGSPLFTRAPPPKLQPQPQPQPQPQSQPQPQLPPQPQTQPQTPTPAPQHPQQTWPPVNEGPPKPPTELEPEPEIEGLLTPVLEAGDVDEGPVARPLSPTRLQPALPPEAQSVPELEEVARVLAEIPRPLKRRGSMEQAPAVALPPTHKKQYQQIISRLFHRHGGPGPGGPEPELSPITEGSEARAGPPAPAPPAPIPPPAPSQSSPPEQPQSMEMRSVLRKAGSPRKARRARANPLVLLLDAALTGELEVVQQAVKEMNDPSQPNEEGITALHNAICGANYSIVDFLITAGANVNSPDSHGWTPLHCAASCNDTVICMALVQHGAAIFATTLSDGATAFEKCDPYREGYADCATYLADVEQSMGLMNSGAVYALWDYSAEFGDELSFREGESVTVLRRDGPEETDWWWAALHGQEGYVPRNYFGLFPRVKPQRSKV

T2: GFP-iASPP Ank-SH3 (629-828) (UniProt Q8WUF5)
T2 sequence: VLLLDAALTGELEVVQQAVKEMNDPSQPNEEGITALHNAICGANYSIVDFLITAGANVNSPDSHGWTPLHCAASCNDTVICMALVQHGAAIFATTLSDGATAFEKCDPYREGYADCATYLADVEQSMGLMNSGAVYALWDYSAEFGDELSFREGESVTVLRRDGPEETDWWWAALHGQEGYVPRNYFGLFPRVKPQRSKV

T3: GFP-iASPP C-terminal region (Cter, 600-828) (UniProt Q8WUF5)
T3 sequence: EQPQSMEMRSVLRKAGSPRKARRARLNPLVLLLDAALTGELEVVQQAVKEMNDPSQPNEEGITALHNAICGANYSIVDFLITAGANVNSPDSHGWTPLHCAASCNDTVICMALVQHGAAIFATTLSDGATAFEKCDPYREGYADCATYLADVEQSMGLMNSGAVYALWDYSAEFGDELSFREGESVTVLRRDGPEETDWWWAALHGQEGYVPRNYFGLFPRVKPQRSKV

T4: GFP-iASPP 1-628 (UniProt Q8WUF5)
T4 sequence: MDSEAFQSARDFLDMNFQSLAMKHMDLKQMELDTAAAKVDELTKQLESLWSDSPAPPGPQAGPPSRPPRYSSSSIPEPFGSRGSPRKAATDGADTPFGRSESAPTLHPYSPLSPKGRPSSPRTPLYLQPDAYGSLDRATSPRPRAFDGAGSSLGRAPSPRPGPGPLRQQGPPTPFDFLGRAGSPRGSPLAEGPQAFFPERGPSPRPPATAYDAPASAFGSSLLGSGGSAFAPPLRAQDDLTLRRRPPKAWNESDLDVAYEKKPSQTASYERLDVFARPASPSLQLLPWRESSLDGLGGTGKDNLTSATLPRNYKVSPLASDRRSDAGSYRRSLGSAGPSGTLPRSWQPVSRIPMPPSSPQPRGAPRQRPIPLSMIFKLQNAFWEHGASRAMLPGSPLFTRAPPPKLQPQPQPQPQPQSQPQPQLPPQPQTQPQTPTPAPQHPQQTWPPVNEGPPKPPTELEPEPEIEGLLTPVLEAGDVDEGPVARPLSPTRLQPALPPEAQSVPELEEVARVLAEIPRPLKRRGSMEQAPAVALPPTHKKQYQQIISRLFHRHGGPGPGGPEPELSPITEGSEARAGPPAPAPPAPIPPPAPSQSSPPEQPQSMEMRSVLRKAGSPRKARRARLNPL

T5: GFP-iASPP 1-599 (UniProt Q8WUF5)
T5 sequence: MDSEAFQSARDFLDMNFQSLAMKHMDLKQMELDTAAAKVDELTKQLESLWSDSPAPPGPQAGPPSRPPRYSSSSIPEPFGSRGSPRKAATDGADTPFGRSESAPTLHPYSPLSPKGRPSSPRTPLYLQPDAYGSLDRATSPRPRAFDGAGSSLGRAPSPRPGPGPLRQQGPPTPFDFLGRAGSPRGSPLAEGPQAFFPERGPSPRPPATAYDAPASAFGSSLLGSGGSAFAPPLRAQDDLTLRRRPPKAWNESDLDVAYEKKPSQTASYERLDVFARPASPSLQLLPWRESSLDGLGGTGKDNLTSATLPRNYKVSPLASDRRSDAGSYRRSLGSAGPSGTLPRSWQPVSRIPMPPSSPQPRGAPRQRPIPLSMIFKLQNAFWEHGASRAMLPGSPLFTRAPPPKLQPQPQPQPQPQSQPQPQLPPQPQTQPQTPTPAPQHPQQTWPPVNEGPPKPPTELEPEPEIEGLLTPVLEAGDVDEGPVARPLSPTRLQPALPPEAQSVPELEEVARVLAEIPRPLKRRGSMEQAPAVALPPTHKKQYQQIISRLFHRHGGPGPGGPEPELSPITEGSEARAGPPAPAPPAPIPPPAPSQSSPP

T6: GFP-iASPP 1-290 (UniProt Q8WUF5)
T6 sequence: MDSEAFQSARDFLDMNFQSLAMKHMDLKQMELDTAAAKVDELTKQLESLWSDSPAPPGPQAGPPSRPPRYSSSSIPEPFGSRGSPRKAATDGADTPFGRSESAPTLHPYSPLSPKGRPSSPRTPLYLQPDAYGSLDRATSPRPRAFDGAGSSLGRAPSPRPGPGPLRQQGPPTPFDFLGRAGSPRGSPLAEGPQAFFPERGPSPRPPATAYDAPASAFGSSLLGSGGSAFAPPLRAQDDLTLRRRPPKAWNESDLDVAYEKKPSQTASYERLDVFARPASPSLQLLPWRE


Key:
Experiment in all cases: co-IP
GFP-iASPP-RARA = target: T1, GFP-iASPP-RARA
[1] = target: T2, GFP-iASPP Ank-SH3 (629-828)
[2] = target: T3, GFP-iASPP C-terminal region (Cter, 600-828)
GFP-iASPP 1-628 = target: T4, GFP-iASPP 1-628
GFP-iASPP 1-599 = target: T5, GFP-iASPP 1-599
GFP-iASPP 1-290 = target: T6, GFP-iASPP 1-290

binding [1]	binding [2]	binding (GFP-iASPP 1-628)	binding (GFP-iASPP 1-599)	also measured	Molecule
–	–	–	–	binding (GFP-iASPP-RARA): binds	EB1 (endogenous) (from UniProt Q15691 1-268)
binds weakly	–	–	–	–	SF-iASPP 1-290 (domain or fragment, UniProt Q8WUF5 1-290) MDSEAFQSARDFLDMNFQSLAMKHMDLKQMELDTAAAKVDELTKQLESLWSDSPAPPGPQAGPPSRPPRYSSSSIPEPFGSRGSPRKAATDGADTPFGRSESAPTLHPYSPLSPKGRPSSPRTPLYLQPDAYGSLDRATSPRPRAFDGAGSSLGRAPSPRPGPGPLRQQGPPTPFDFLGRAGSPRGSPLAEGPQAFFPERGPSPRPPATAYDAPASAFGSSLLGSGGSAFAPPLRAQDDLTLRRRPPKAWNESDLDVAYEKKPSQTASYERLDVFARPASPSLQLLPWRE
binds	binds	–	–	–	SF-iASPP 1-599 (domain or fragment, UniProt Q8WUF5 1-599) MDSEAFQSARDFLDMNFQSLAMKHMDLKQMELDTAAAKVDELTKQLESLWSDSPAPPGPQAGPPSRPPRYSSSSIPEPFGSRGSPRKAATDGADTPFGRSESAPTLHPYSPLSPKGRPSSPRTPLYLQPDAYGSLDRATSPRPRAFDGAGSSLGRAPSPRPGPGPLRQQGPPTPFDFLGRAGSPRGSPLAEGPQAFFPERGPSPRPPATAYDAPASAFGSSLLGSGGSAFAPPLRAQDDLTLRRRPPKAWNESDLDVAYEKKPSQTASYERLDVFARPASPSLQLLPWRESSLDGLGGTGKDNLTSATLPRNYKVSPLASDRRSDAGSYRRSLGSAGPSGTLPRSWQPVSRIPMPPSSPQPRGAPRQRPIPLSMIFKLQNAFWEHGASRAMLPGSPLFTRAPPPKLQPQPQPQPQPQSQPQPQLPPQPQTQPQTPTPAPQHPQQTWPPVNEGPPKPPTELEPEPEIEGLLTPVLEAGDVDEGPVARPLSPTRLQPALPPEAQSVPELEEVARVLAEIPRPLKRRGSMEQAPAVALPPTHKKQYQQIISRLFHRHGGPGPGGPEPELSPITEGSEARAGPPAPAPPAPIPPPAPSQSSPP
binds	binds	–	–	–	SF-iASPP 1-628 (domain or fragment, UniProt Q8WUF5 1-628) MDSEAFQSARDFLDMNFQSLAMKHMDLKQMELDTAAAKVDELTKQLESLWSDSPAPPGPQAGPPSRPPRYSSSSIPEPFGSRGSPRKAATDGADTPFGRSESAPTLHPYSPLSPKGRPSSPRTPLYLQPDAYGSLDRATSPRPRAFDGAGSSLGRAPSPRPGPGPLRQQGPPTPFDFLGRAGSPRGSPLAEGPQAFFPERGPSPRPPATAYDAPASAFGSSLLGSGGSAFAPPLRAQDDLTLRRRPPKAWNESDLDVAYEKKPSQTASYERLDVFARPASPSLQLLPWRESSLDGLGGTGKDNLTSATLPRNYKVSPLASDRRSDAGSYRRSLGSAGPSGTLPRSWQPVSRIPMPPSSPQPRGAPRQRPIPLSMIFKLQNAFWEHGASRAMLPGSPLFTRAPPPKLQPQPQPQPQPQSQPQPQLPPQPQTQPQTPTPAPQHPQQTWPPVNEGPPKPPTELEPEPEIEGLLTPVLEAGDVDEGPVARPLSPTRLQPALPPEAQSVPELEEVARVLAEIPRPLKRRGSMEQAPAVALPPTHKKQYQQIISRLFHRHGGPGPGGPEPELSPITEGSEARAGPPAPAPPAPIPPPAPSQSSPPEQPQSMEMRSVLRKAGSPRKARRARLNPL
–	–	binds	binds	binding (GFP-iASPP 1-290): binds weakly	SF-iASPP 629-828 (domain or fragment, UniProt Q8WUF5 629-828) VLLLDAALTGELEVVQQAVKEMNDPSQPNEEGITALHNAICGANYSIVDFLITAGANVNSPDSHGWTPLHCAASCNDTVICMALVQHGAAIFATTLSDGATAFEKCDPYREGYADCATYLADVEQSMGLMNSGAVYALWDYSAEFGDELSFREGESVTVLRRDGPEETDWWWAALHGQEGYVPRNYFGLFPRVKPQRSKV
–	–	binds	binds	–	SF-iASPP 600-828 (domain or fragment, UniProt Q8WUF5 600-828) EQPQSMEMRSVLRKAGSPRKARRARLNPLVLLLDAALTGELEVVQQAVKEMNDPSQPNEEGITALHNAICGANYSIVDFLITAGANVNSPDSHGWTPLHCAASCNDTVICMALVQHGAAIFATTLSDGATAFEKCDPYREGYADCATYLADVEQSMGLMNSGAVYALWDYSAEFGDELSFREGESVTVLRRDGPEETDWWWAALHGQEGYVPRNYFGLFPRVKPQRSKV
